Data as given in article PMC11928650.
No constants are given. Whether binding was seen depends on the method and setting. Binding seen in cells or lysates may run through a third protein. For part of these data: Binding calls can cover weak binding; strength is not graded here.

Sequences of proteins named here, by UniProt entry; tags and fusion partners are left off. A change or cut given only in a name is not applied to a line headed by its entry. Residues count along the entry.
UniProt P19022, residues 160-906: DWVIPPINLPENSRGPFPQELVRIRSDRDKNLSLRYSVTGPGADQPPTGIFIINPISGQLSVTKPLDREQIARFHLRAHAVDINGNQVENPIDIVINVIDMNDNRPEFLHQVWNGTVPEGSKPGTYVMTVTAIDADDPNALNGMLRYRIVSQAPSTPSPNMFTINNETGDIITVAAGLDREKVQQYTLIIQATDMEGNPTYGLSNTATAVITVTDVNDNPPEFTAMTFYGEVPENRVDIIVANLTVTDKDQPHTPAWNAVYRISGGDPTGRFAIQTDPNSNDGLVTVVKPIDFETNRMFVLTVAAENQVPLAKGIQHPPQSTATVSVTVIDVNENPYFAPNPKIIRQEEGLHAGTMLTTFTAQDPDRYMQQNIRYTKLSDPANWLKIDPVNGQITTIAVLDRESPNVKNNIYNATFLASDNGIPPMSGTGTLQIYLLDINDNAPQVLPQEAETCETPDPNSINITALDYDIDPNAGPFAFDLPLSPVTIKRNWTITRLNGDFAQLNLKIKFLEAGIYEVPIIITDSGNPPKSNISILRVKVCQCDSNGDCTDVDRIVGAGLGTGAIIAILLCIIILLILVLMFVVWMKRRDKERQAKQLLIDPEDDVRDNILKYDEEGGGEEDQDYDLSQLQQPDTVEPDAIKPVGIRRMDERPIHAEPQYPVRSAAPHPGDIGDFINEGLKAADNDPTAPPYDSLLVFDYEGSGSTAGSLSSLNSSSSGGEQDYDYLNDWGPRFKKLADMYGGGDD
UniProt Q13444: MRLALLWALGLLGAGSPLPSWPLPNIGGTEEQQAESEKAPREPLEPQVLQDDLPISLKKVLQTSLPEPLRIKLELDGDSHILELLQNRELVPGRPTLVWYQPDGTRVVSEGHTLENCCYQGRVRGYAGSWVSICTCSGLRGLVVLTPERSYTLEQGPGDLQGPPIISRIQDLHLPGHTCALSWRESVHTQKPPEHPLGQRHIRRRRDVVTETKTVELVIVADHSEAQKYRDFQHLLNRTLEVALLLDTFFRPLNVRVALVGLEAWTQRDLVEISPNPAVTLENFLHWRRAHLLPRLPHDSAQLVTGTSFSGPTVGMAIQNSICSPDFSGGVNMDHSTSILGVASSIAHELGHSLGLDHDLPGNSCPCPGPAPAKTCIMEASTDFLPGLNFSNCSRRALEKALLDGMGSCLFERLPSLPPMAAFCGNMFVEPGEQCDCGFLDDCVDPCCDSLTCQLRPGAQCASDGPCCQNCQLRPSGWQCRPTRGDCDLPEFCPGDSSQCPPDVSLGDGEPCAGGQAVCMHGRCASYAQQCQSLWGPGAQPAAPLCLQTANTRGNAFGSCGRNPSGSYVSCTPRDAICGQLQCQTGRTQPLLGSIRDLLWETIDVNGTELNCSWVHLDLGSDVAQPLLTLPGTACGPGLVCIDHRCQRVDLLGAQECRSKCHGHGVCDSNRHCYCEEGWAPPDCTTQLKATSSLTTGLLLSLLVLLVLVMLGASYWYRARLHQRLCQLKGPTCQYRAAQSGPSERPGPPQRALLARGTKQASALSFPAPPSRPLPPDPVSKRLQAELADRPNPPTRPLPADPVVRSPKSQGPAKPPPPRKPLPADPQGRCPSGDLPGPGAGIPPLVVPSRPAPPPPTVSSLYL
UniProt Q13177: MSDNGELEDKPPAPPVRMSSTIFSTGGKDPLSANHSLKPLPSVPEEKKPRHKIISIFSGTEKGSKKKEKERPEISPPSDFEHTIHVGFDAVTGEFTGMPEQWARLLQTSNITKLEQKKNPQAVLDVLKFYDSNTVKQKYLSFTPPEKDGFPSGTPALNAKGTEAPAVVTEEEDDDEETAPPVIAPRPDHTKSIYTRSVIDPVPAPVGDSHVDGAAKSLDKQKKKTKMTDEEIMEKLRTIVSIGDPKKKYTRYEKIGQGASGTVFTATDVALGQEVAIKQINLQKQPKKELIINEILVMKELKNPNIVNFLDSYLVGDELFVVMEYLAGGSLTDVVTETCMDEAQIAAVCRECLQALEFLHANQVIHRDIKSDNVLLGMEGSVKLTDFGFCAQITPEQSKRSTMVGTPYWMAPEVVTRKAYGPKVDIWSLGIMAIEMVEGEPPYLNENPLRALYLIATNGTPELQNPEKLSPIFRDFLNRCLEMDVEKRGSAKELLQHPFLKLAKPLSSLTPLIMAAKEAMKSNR

Tests used:
[1] = biological target: N-cadherin (NCAD), endogenous in the chondrocyte cell line T/C28a4 (human (endogenous in T/C28a4)) (UniProt P19022); test: co-IP; lysates of T/C28a4 chondrocyte cells transfected with full length ADAM15 or ADAM15 Δcyto (10 mM HEPES pH 7.0, 150 mM NaCl, 1% Triton X-100), ADAM15 or N-cadherin antibody with protein G agarose overnight at 4 °C, immunoblot; cells mechanically strained where Nck and PAK2 were detected
[2] = biological target: full length ADAM15 transfected into the chondrocyte cell line T/C28a4 (UniProt Q13444); test: as above
[3] = biological target: full length ADAM15 transfected into the chondrocyte cell line T/C28a4 (UniProt Q13444); test: condition: only unstimulated cells (no mechanical strain); co-IP; as a4, but unstimulated (not mechanically strained) T/C28a4 cells with full length ADAM15; ADAM15 antibody, blots for Nck and PAK2

Substance | binding [1] | binding [2] | binding [3]
full length ADAM15 transfected into the chondrocyte cell line T/C28a4 (from UniProt Q13444) | binds |  | 
p21-activated kinase 2 (PAK2), endogenous in the chondrocyte cell line T/C28a4 (from UniProt Q13177 1-524) |  | binds | no binding
